# From the supplement of paper PMC12823440, “Inhibitors supercharge kinase turnover through native proteolytic circuits” (Nature, 2025)
# Amino acid sequences for entries named in this document (tags omitted). A change or cut given only in a name is not applied to a line headed by its entry.
# UniProt P14616: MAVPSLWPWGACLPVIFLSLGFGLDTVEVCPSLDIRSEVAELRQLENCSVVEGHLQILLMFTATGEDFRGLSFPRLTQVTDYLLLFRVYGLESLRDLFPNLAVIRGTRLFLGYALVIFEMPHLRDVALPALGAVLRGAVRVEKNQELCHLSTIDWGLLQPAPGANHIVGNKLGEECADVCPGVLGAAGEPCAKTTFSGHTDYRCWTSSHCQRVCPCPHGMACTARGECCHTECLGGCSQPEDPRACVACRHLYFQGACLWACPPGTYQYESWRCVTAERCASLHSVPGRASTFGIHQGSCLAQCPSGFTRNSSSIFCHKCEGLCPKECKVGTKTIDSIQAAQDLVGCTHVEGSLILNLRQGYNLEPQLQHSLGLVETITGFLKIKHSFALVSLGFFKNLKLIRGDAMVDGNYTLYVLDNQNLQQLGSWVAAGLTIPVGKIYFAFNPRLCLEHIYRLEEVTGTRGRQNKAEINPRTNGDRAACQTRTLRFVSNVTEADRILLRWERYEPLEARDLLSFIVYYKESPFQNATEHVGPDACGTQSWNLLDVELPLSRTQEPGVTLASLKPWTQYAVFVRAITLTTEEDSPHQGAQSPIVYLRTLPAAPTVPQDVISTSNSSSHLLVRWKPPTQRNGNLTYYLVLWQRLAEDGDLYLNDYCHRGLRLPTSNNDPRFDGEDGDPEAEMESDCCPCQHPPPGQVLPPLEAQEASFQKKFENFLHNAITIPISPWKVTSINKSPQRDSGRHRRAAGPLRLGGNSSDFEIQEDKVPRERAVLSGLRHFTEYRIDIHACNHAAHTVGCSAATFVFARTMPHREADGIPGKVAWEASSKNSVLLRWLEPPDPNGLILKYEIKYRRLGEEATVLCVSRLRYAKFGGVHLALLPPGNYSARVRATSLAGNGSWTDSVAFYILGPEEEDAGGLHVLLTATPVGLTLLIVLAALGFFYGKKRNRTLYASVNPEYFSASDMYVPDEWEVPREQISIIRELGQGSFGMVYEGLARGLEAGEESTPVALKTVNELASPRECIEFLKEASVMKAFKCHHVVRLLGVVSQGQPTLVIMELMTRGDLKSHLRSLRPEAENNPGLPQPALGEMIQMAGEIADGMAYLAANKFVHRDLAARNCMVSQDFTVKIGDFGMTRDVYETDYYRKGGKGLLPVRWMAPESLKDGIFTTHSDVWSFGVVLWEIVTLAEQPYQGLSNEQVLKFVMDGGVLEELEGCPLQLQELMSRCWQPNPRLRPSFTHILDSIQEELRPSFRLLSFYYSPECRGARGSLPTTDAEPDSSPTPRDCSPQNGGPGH
# Structures can show the parent of a compound that is named as a salt. The list shows a part of the results. Hit calls seldom repeat between salt and free forms of one compound.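 Kinases, fused to nanoluciferase, were expressed in K562 cells; luminescence was measured every 4 h from 2 to 18 h as percent of control (DMSO = 100%, positive control = 0%). A time point is decreased if signal falls significantly (2 sigma). Hits were called by the authors by a rule that is not shown; the count of time points alone does not decide it.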
# Target: INSRR (UniProt P14616)
# Experiment: number of time points (of 5) at which kinase-Nluc abundance scored as decreased, DMSO-normalised (count); higher = more persistent destabilization
# Details: K562; 2-18 h
row,Compound,number of time points
1,CCc1c(C(=O)NNC(=O)C(O)c2cc(F)cc(F)c2)ccc(O)c1C (stereo not drawn) (10 µM),0
2,COc1cc2ncnc(Nc3ccc(Cl)cc3F)c2cc1OC (10 µM),0
3,COc1cc(/C=C/C(=O)NCC(O)c2ccc(O)cc2)ccc1O (stereo not drawn) [N-Feruloyloctopamine] (2.5 µM),0
4,NC(=O)c1nc(Nc2ccccc2)sc1NC(=O)C1CCCCC1 (10 µM),0
5,O=c1cc(CN2CCOCC2)occ1OCCCCCSc1ccnc2cc(C(F)(F)F)ccc12 (10 µM),0
6,O=C(O)CCC(=O)Nc1ccc(Br)cn1 [Bikinin] (10 µM),0
7,CC[C@@H](Oc1nc(Oc2cc(C)cc(-c3cccc(CN)c3)c2)c(F)cc1F)C(=O)O (10 µM),0
8,C[C@]1(O)CCN(c2nc(N3C[C@H](O)[C@@H](O)C3)cc(C(F)(F)F)c2C#N)C1 (10 µM),0
9,COc1ccccc1-c1cc(Nc2cccc(CS(N)(=O)=O)c2)ncn1 (10 µM),4
10,CC(=O)c1c(C)cc2cccc(O)c2c1O [Nepodin] (10 µM),0
11,NC(=O)c1ccc2[nH]ccc2c1 (10 µM),0
12,COc1cc2c(cc1OC)CN(S(=O)(=O)c1ccc(OC)c(N3CCN(C(=O)c4ccc(F)cc4C(F)(F)F)CC3)c1)CC2 (10 µM),0
13,OCCn1cc(-c2ccc3c(c2)CC/C3=N\O)c(-c2ccncc2)n1 (10 µM),0
14,C[C@@H]1CC[C@@H](Nc2nc(NC(C)(C)C)ncc2C(N)=O)C[C@H]1O (10 µM),0
15,CCc1cc2c(cc1N1CCC(N3CCOCC3)CC1)C(C)(C)c1[nH]c3cc(C#N)ccc3c1C2=O [Alectinib] (10 µM),0
16,COCCNc1nc2ccc(C#CC3(O)CCCCC3)cc2n1-c1ccnc(N)n1 (10 µM),0
17,Cc1[nH]c(/C=C2\C(=O)Nc3ccccc32)c(C)c1CCC(=O)O [Orantinib] (10 µM),0
18,Nc1cc(C(F)(F)F)c(-c2cc(N3CCOCC3)nc(N3CCOCC3)n2)cn1 [Buparlisib (Hydrochloride)] (2.5 µM),0
19,CCN1CCN(Cc2ccc(Nc3ncc(F)c(-c4cc(F)c5nc(C)n(C(C)C)c5c4)n3)nc2)CC1 [Abemaciclib (methanesulfonate)] (10 µM),0

row,Compound,number of time points
1,Cc1ccc2cc(-c3c(C)ccc(C(=O)c4c(-c5ccccc5)n(C)n(-c5ccccc5)c4=O)c3N)ccc2n1 (2.5 µM),0
2,FC(F)(c1ccc2ncccc2c1)c1nnc2ccc(-c3ccncc3)nn12 (10 µM),0
3,O=C1N[C@@H](Cc2c[nH]c3ccccc23)C(=O)N2CCC[C@@H]12 [Brevianamide F] (10 µM),0
4,Cc1nc2sccn2c(=O)c1CCN1CCC(=C(c2ccccc2)c2ccc(F)cc2)CC1 (10 µM),0
5,O=c1[nH]c(=O)n([C@@H]2O[C@H](CO)[C@@H](O)[C@@H]2O)cc1/C=C/Br [Sorivudine] (10 µM),0
6,COc1cc2nccc(Oc3ccc(NC(=O)NC4CC4)c(Cl)c3)c2cc1C(N)=O [Lenvatinib (mesylate)] (10 µM),2
7,CN1C(=O)N[C@H](Cc2c[nH]c3c(Cl)cccc23)C1=O [Necrostatin 2] (10 µM),0
8,CCN1CCN(Cc2ccc(Nc3ncc(F)c(-c4cc(F)c5nc(C)n(C(C)C)c5c4)n3)nc2)CC1 [Abemaciclib] (2 µM),0
9,Cc1ccc2nc(NCCN)c3ncc(C)n3c2c1 (2.5 µM),0
10,CNC(=O)c1c(F)cccc1Nc1nc(Nc2cc3c(cc2OC)CCN3C(=O)CN(C)C)nc2[nH]ccc12 (10 µM),0
11,Cn1nccc1Nc1nccc(-c2ccn([C@H](CO)c3ccc(Cl)c(F)c3)c(=O)c2)n1 [Ravoxertinib hydrochloride] (10 µM),0
12,CN(C)CCSSCCNC(=O)C1CCN(C(=O)CSc2ccc(Cl)cc2)CC1 (10 µM),0
13,CNC(=O)c1cc(COc2nnc(Nc3ccc(Cl)cc3)c3ccoc23)ccn1 [Telatinib] (10 µM),0
14,NCCNS(=O)(=O)c1cccc2c(Cl)cccc12 [A-3 (hydrochloride)] (10 µM),0
15,O=C(Nc1ccc(CN2CCOCC2)cc1)c1ccc(-c2cccc(Cl)c2)o1 (10 µM),0
16,CCN1CCN(Cc2ccc(-c3cc4c(N[C@H](C)c5ccccc5)ncnc4[nH]3)cc2)CC1 (2.5 µM),2
17,COc1cccc(OC)c1C(=O)OCc1cc(O)ccc1O[C@@H]1O[C@H](CO)[C@@H](O)[C@H](O)[C@H]1O [Curculigoside] (10 µM),0
18,Nc1ncnc2c1c(-c1ccc(Oc3ccccc3)cc1)nn2C1CCCC1 (2.5 µM),0
19,CC#CC(=O)N1CC[C@@H](n2c(=O)n(-c3ccc(Oc4ccccc4)cc3)c3c(N)ncnc32)C1 [Tirabrutinib] (10 µM),0

# Random excerpt: 2 entries already listed.
row,Compound,number of time points
10,CC(=O)c1c(C)cc2cccc(O)c2c1O [Nepodin] (10 µM),0
10,CNC(=O)c1c(F)cccc1Nc1nc(Nc2cc3c(cc2OC)CCN3C(=O)CN(C)C)nc2[nH]ccc12 (10 µM),0
